Data as given in PubChem BioAssay AID652259 (Drosophila RNAi Screening Center, 2013).
The screen tested about 22,000 reagents; below is an unselected part of those that have a named target and a result. In the full data, 233 (1.1%) were called active. 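Light values are raw, unnormalised plate reads; the ratio scores behind the reporter calls were not deposited.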 Entries without a mark were called inactive. Names joined by + are all predicted targets of the reagent. Not given: the amount of reagent, the time to read-out, the dose of the treatment.

- Assay: 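Genome-wide hunt for genes that control Wingless pathway activity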 (primary screen)
- Cells: Drosophila clone 8 imaginal disc epithelial cells
- Reagent: long dsRNA against Drosophila genes
- Treatment: pathway stimulated by co-transfected Wingless expression plasmid
- Measurement: 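Firefly luciferase from a tcf-site Wingless reporter, measured alongside co-transfected Renilla luciferase that tracks transfection; pathway stimulated by a Wingless plasmid; the firefly-to-Renilla ratio is not deposited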
- Direction: firefly reporter light: higher = more Wg reporter light, before normalisation; Renilla control light: higher = more transfected or surviving cells
- Rule for the call: 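Strong candidates differ from their plate mean by at least two out of four per-plate statistical tests; weak candidates meet just one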
- Meaning of the calls: active = candidate regulator (raises or lowers reporter); inactive = not a candidate

Target gene | DRSC id | reporter change call, replicate 1 | firefly reporter light, replicate 1 | firefly reporter light, replicate 2 | Renilla control light, replicate 1 | Renilla control light, replicate 2
CG15525 | DRSC15062 | – | 7432 | – | 3168 | –
CG33110 | DRSC14694 | – | 12945 | – | 5362 | –
CG33110 | DRSC16137 | – | 24323 | – | 13265 | –
CG31224 | DRSC15272 | – | 3075 | – | 885 | –
CG31224 | DRSC16290 | – | 3808 | 9444 | 944 | 2293
CG34171 | DRSC01637 | – | 22038 | – | 10117 | –
CG13810 | DRSC08344 | – | 10262 | – | 4160 | –
CG13810 | DRSC22838 | – | 5.34e5 | 5.74e5 | 2.61e5 | 3.02e5
Nxt1 (NTF2-related export protein 1) | DRSC04630 | – | 3878 | 10201 | 793 | 2800
CG17261 | DRSC00498 | – | 2237 | 8738 | 696 | 3371
Gorab (Golgin, RAB6 interacting) | DRSC10383 | – | 8390 | – | 3125 | –
Snap29 (Synaptosomal-associated protein 29kDa) | DRSC04721 | – | 3012 | 5048 | 812 | 2192
CG7252 | DRSC10789 | – | 8485 | – | 3812 | –
CG7252 | DRSC21492 | – | 4.44e5 | 5.40e5 | 1.35e5 | 1.41e5
CG12301 | DRSC09875 | – | 2256 | – | 1040 | –
Spt3 | DRSC15465 | – | 18618 | – | 5525 | –
tow (target of wingless) | DRSC10192 | – | 2144 | 6819 | 281 | 627
DIP-gamma (Dpr-interacting protein gamma) | DRSC14873 | – | 3570 | 7234 | 2198 | 1036
cpo (couch potato) | DRSC13265 | – | 5258 | – | 2231 | –
cpo (couch potato) | DRSC13273 | Wg reporter activity raised | 8037 | – | 1928 | –
cpo (couch potato) | DRSC14503 | Wg reporter activity raised (active) | 16524 | – | 1355 | –
cpo (couch potato) | DRSC15327 | – | 11043 | – | 1002 | –
cpo (couch potato) | DRSC16926 | – | 13869 | – | 1233 | –
ND-15 (NADH dehydrogenase (ubiquinone) 15 kDa subunit) | DRSC00311 | – | 11408 | – | 3053 | –
Fum3 (Fumarase 3) | DRSC10592 | – | 6397 | – | 3714 | –
CG43244 | DRSC05336 | – | 21516 | – | 15437 | –
CG17803 | DRSC15275 | – | 20817 | – | 4405 | –
CG17803 | DRSC22811 | – | 6.44e5 | 7.31e5 | 2.92e5 | 3.50e5
CG42841 | DRSC07962 | – | 2091 | – | 1148 | –
CG15712 | DRSC06583 | – | 5905 | – | 4002 | –
asRNA:CR43433 + Rbp6 | DRSC09464 | – | 5768 | – | 2154 | –
ase (asense) | DRSC18739 | – | 18736 | – | 11552 | –
CG12662 | DRSC17865 | – | 21748 | – | 10410 | –
Shab (Shaker cognate b) | DRSC08013 | – | 2092 | – | 1666 | –
Shab (Shaker cognate b) | DRSC08643 | – | 4201 | – | 2144 | –
Shab (Shaker cognate b) | DRSC08699 | – | 13248 | – | 4916 | –
CG42784 | DRSC02534 | – | 23304 | – | 6264 | –
CG42784 | DRSC02535 | – | 2122 | 6964 | 569 | 1093
CG42784 | DRSC22272 | – | 4.48e5 | 4.55e5 | 1.70e5 | 1.62e5
CG42784 | DRSC22804 | – | 2.82e5 | 3.71e5 | 1.17e5 | 1.46e5
CG11899 | DRSC16656 | – | 6042 | – | 2386 | –
en (engrailed) | DRSC07609 | – | 6903 | – | 2464 | –
TBC1D16 (TBC1 domain family member 16) | DRSC02841 | – | 3318 | 6952 | 918 | 2301
amos (absent MD neurons and olfactory sensilla) | DRSC03484 | – | 2037 | 6340 | 466 | 2916
Amt (Ammonium transporter) | DRSC16055 | – | 14426 | – | 4261 | –
red (red Malpighian tubules) | DRSC14477 | Wg reporter activity raised (active) | 8538 | – | 1021 | –
v (vermilion) | DRSC20383 | – | 2240 | 6086 | 640 | 1917
CG14720 | DRSC14942 | – | 20057 | – | 4405 | –
CG42855 | DRSC06161 | – | 6460 | – | 2744 | –
